Data source: PubChem BioAssay AID1671195 (Yale University, 2021)
This is a random part of about 22,000 reagents. About 1,510 of all reagents (6.9%) count as active. 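Active includes knockdowns raising or lowering LDL uptake; positive z-scores mean more uptake, negative mean less.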 Reagent sequences are not shown.

- Screen: 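Genes whose knockdown alters LDL uptake in liver cancer cells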 (primary screen)
- System: human Huh7 hepatoma cells
- Reagents: siRNA pool against human genes, 18 nM
- Duration: about 2 to 2.5 days of knockdown, then 8 h LDL uptake
- Treatment: DiI-labelled LDL at 30 µg/ml for 8 h, in lipoprotein-deficient serum medium
- Read-out: 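Fluorescent LDL signal imaged in cells, scaled to the plate median, robust z-score for each replicate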
- Reading the numbers: robust z-score: higher = more LDL uptake after knockdown
- Rule for the call: 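a gene counts as active if at least two replicate z-scores exceed ±2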

After knock-down of NR2C2 the results were robust z-score, replicate 1 = 0.469; robust z-score, replicate 2 = 0.716; robust z-score, replicate 3 = -0.0397; inactive.
After knock-down of SGCE the results were robust z-score, replicate 1 = -0.472; robust z-score, replicate 2 = -1.14; robust z-score, replicate 3 = -0.407; inactive.
For BARHL1, the entry reads robust z-score, replicate 1 = 0.526; robust z-score, replicate 2 = 0.93; robust z-score, replicate 3 = 1.43; inactive.
PSMA4 gave robust z-score, replicate 1 = -0.154; robust z-score, replicate 2 = 0.673; robust z-score, replicate 3 = 0.212; inactive.
For ADM the deposit lists robust z-score, replicate 1 = -0.743; robust z-score, replicate 2 = -0.285; robust z-score, replicate 3 = -1.28; inactive.

Quoted from the listing, 3 entries:
SGCE: robust z-score, replicate 1 = -0.472; robust z-score, replicate 2 = -1.14; robust z-score, replicate 3 = -0.407; activity call = inactive
BARHL1: robust z-score, replicate 1 = 0.526; robust z-score, replicate 2 = 0.93; robust z-score, replicate 3 = 1.43; activity call = inactive
PSMA4: robust z-score, replicate 1 = -0.154; robust z-score, replicate 2 = 0.673; robust z-score, replicate 3 = 0.212; activity call = inactive

The list goes on:
Against CLYBL, the entry reads robust z-score, replicate 1 = 1.95; robust z-score, replicate 2 = 2.53; robust z-score, replicate 3 = 2.23; active.
For MFAP3L, the values are robust z-score, replicate 1 = -0.946; robust z-score, replicate 2 = -0.927; robust z-score, replicate 3 = -1.01; inactive.
Knock-down of SF3A2 came out at: robust z-score, replicate 1 = 1.08; robust z-score, replicate 2 = 3.29; robust z-score, replicate 3 = 4.97; active.
After knock-down of CDC6, the record shows robust z-score, replicate 1 = 0.55; robust z-score, replicate 2 = 0.712; robust z-score, replicate 3 = 0.49; inactive.
With knock-down of HAS3, the screen gave robust z-score, replicate 1 = 0.198; robust z-score, replicate 2 = 0.244; robust z-score, replicate 3 = -0.13; inactive.
After knock-down of DOK5, the record shows robust z-score, replicate 1 = 0.0133; robust z-score, replicate 2 = -1.06; robust z-score, replicate 3 = -0.37; inactive.
For GPR61 the deposit lists robust z-score, replicate 1 = 0.19; robust z-score, replicate 2 = -1.23; robust z-score, replicate 3 = -0.616; inactive.
Against FSTL1, the entry reads robust z-score, replicate 1 = 0.149; robust z-score, replicate 2 = -0.471; robust z-score, replicate 3 = -0.58; inactive.
LINC01085 showed robust z-score, replicate 1 = 0.194; robust z-score, replicate 2 = 0.317; robust z-score, replicate 3 = 0.0316; inactive.
Silencing of DND1 gave: robust z-score, replicate 1 = -1.55; robust z-score, replicate 2 = -1.22; robust z-score, replicate 3 = -0.963; inactive.
Against MEIS3, the values are robust z-score, replicate 1 = 0.345; robust z-score, replicate 2 = -0.166; robust z-score, replicate 3 = 0.716; inactive.
